Assay: PAMPA assay for prediction of BBB penetration (polar brain lipid)

For NS(=O)(=O)c1cc(C(=O)O)c(NCc2ccco2)cc1Cl [Furosemide, reference compound], the Papp at 30 µM (PAMPA, pH 7.4) was 0.2 ± 0.07 ×10⁻⁶ cm/s and the “CNS Predicted Availability” value (class from PAMPA Pe) was “CNS − (CNS − (low BBB permeation predicted): Pe (×10^−6 cm s^−1) < 2.0)”.

Reference: publication PMC6278354, “Investigation of New Orexin 2 Receptor Modulators Using In Silico and In Vitro Methods” (Molecules, 2018)
